Reference: article doi:10.1101/2025.02.06.636899
These are yes or no findings as the source states them, for the method shown. Binding seen in cells or lysates may run through a third protein.

Molecular target: HA-tagged Q331K human TDP-43 (human) (UniProt Q13148)
Assay: co-IP

binding: no binding
Substance: RAD23A (from UniProt P54725 1-363)
